The list is a part of this screen's results and no random one: it is rich in T/C values a quarter to a half above the control, in often repeated tests (any T/C) and in doses without a T/C. Further doses and runs are listed elsewhere. T/C: endpoint of the treated group in % of that of the vehicle group. Some entries give survivors of the animals treated and no T/C: the source holds a T/C of zero for them, seemingly a mark for toxic or unscored doses. Some survivor counts are full or nearly so, which does not show that the dose was tolerated: survival well below the control is almost never listed, so the zero probably covers shortened survival too. Counts of survivors are from the toxicity check (mostly the fifth day) where no day follows; animals may have died later. Schedules are NCI's codes, taken here to give the interval after Q, in days (D) or hours (H), and the number of doses after X. For survival time, the PubChem record calls one and a half times the control and up active, and a quarter to a half above the control has no call in these data; cut-offs in other NCI protocols can differ.

In the test the test system is L1210 leukemia ip in BDF1 mice, survival T/C. As to the kind of experiment: NCI In Vivo Anticancer Drug Screen. Data for tumor model L1210 Leukemia (intraperitoneal) in B6D2F1 (BDF1) mice. Conditions: T/C endpoint: mean survival time, higher T/C = longer survival.
Setting [1] is: dose: 100.0 mg/kg/injection, schedule: Q01DX001 (ip), vehicle: saline.
Where [2] appears, read: dose: 400.0 mg/kg/injection, schedule: Q01DX001 (ip), vehicle: saline.
Setting [3] is: dose: 400.0 mg/kg/injection, schedule: Q04DX003 (ip), vehicle: saline.
Where [4] appears, read: dose: 400.0 mg/kg/injection, schedule: Q01DX001 (ip), vehicle: carboxymethylcellulose (CMC).
The mark [5] stands for this setting: dose: 80.0 mg/kg/injection, schedule: Q01DX001 (ip), vehicle: saline.
Where [6] appears, read: dose: 200.0 mg/kg/injection, schedule: Q01DX001 (ip), vehicle: saline.
[7] abbreviates: dose: 400.0 mg/kg/injection, schedule: Q01DX009 (ip), vehicle: saline with Tween-80.

Consider `O=C(O)CCCl`, for which the survivor count reads like this: under setting [1], 4 of 4; under setting [2], 1 of 4; under setting [3], 1 of 6.
In the case of `O=C(O)c1cc(-c2ccccc2)cc(Br)c1O`, the survivor count under setting [4] is given as 2 of 4.
Consider `Cc1ccccc1NC(=O)N(C)N`, for which the survivor count is, setting by setting: (dose: 150.0 mg/kg/injection, schedule: Q01DX001 (ip), vehicle: carboxymethylcellulose (CMC)) 3 of 6; (dose: 300.0 mg/kg/injection, schedule: Q01DX001 (ip), vehicle: carboxymethylcellulose (CMC)) 1 of 6.
Turning to `CCN1/C(=C/C(C)=C/c2[se]c3ccccc3[n+]2CC)[Se]c2ccc(OC)cc21`, the survivor count is, setting by setting: under setting [5], 0 of 6; under setting [1], 0 of 6; under setting [6], 0 of 6; under setting [2], 0 of 6.
Turning to `Cc1ccc(N2CCN(C3=CCC(C(C)C)CC3)CC2)cc1Cl` (centres undefined), the survivor count is given as 3 of 6 (dose: 200.0 mg/kg/injection, schedule: Q01DX009 (ip), vehicle: saline with Tween-80) and 0 of 6 under setting [7].
Regarding `CCCNC(=O)Oc1ccc(SC)cc1`, the survivor count reads like this: (dose: 400.0 mg/kg/injection, schedule: Q01DX001 (ip), vehicle: other) 2 of 6; (dose: 400.0 mg/kg/injection, schedule: Q01DX009 (ip), vehicle: other) 3 of 3.
On to `CNC1(c2ccccc2)CC2CCC(C2)C1=O` (centres undefined), for which the survivor count is 1 of 6 (dose: 100.0 mg/kg/injection, schedule: Q04DX003 (ip), vehicle: saline); 0 of 6 under setting [6]; 0 of 6 under setting [2].
Turning to `Cc1cc(O)c2cc3c(O)c(O)ccc3cc2c1`, the survivor count is, setting by setting: (dose: 16.0 mg/kg/injection, schedule: Q01DX015 (ip), vehicle: saline) 2 of 6; (dose: 20.0 mg/kg/injection, schedule: Q01DX001 (ip), vehicle: saline) 0 of 6; (dose: 32.0 mg/kg/injection, schedule: Q01DX015 (ip), vehicle: saline) 2 of 6; (dose: 40.0 mg/kg/injection, schedule: Q01DX001 (ip), vehicle: saline) 0 of 6; (dose: 50.0 mg/kg/injection, schedule: Q01DX001 (ip), vehicle: carboxymethylcellulose (CMC)) 3 of 6; under setting [5], 0 of 6. Also, the survivor count (dose: 100.0 mg/kg/injection, schedule: Q01DX001 (ip), vehicle: carboxymethylcellulose (CMC)) was 3 of 6; the survivor count (dose: 200.0 mg/kg/injection, schedule: Q01DX001 (ip), vehicle: carboxymethylcellulose (CMC)) was 5 of 6; the survivor count under setting [4] was 0 of 6.
In the case of `CC(C)C(O)C1(C)CC1` (centres undefined), under setting [7], the survivor count is on record as 6 of 6.
Turning to `NOCc1ccsn1`, the survivor count reads like this: (dose: 400.0 mg/kg/injection, schedule: Q01DX009 (ip), vehicle: sodium bicarbonate) 0 of 6; (dose: 400.0 mg/kg/injection, schedule: Q04DX003 (ip), vehicle: other) 6 of 6.
With `CCC(=O)OCC(=O)[C@]1(O)Cc2c(O)c3c(c(O)c2[C@@H](OC2CC(N)C(O)C(C)O2)C1)C(=O)c1c(OC)cccc1C3=O` (some centres undefined), the T/C is 135 % of control (dose: 0.66 mg/kg/injection, schedule: Q04DX003 (ip), vehicle: saline); 126 % of control (dose: 1.0 mg/kg/injection, schedule: Q04DX003 (ip), vehicle: saline); 139 % of control (dose: 1.5 mg/kg/injection, schedule: Q04DX003 (ip), vehicle: saline).
As for `CC(C)N(CCNc1nc(C(Cl)(Cl)Cl)nc2cc(Cl)ccc12)C(C)C`, the survivor count (dose: 400.0 mg/kg/injection, schedule: Q04DX003 (ip), vehicle: saline with Tween-80) is 3 of 6.
For the compound `CCN(CC)CCCC(C)Nc1nccc(/C=C/c2ccc(Cl)cc2)n1` (centres undefined), for the setting “dose: 200.0 mg/kg/injection, schedule: Q04DX003 (ip), vehicle: Klucel (hydroxypropylcellulose) (HPC)”, the survivor count was 2 of 6.
On to `Nc1c(F)c(N)c(F)c(F)c1F`, for which the survivor count reads like this: under setting [1], 3 of 6; under setting [6], 0 of 6; under setting [2], 0 of 6.
In the case of `CCCCCC(Oc1ccc(Cl)cc1)C(=O)O` (centres undefined), the survivor count (dose: 400.0 mg/kg/injection, schedule: Q04DX003 (ip), vehicle: Klucel (hydroxypropylcellulose) (HPC)) was 1 of 6.
`CCCCN=C1NC(N)=NC(C)(C)N1`: where the note is “dose: 400.0 mg/kg/injection, schedule: Q01DX001 (ip), vehicle: Klucel (hydroxypropylcellulose) (HPC)”, the survivor count is 0 of 3.
On to `CCN(CC)CCCC(C)Nc1c2ccc(Cl)cc2nc2cc(Cl)ccc12` (centres undefined), for which the survivor count is on record as 5 of 6 (dose: 100.0 mg/kg/injection, schedule: Q01DX009 (ip), vehicle: saline); 0 of 6 (dose: 200.0 mg/kg/injection, schedule: Q04DX003 (ip), vehicle: saline); 0 of 6 under setting [3].
As to `Clc1nc(Cl)c(Cl)c(C(Cl)(Cl)Cl)n1`, the survivor count is on record as 5 of 6 (dose: 100.0 mg/kg/injection, schedule: Q01DX009 (ip), vehicle: saline with Tween-80) and 5 of 6 under setting [7].
Turning to `CCC[CH2][Sn]1([CH2]CCC)[O]C(=O)C2C(C=C(C)C)C=C(C)C(C)C2C(=O)[O]1` (centres undefined), the survivor count was 0 of 4 under setting [6] and 0 of 4 under setting [2].
As for `CNC(=O)Oc1cccc(N(C)C)c1`, the survivor count is reported as 1 of 6 (dose: 38.0 mg/kg/injection, schedule: Q01DX001 (ip), vehicle: other); 0 of 6 (dose: 75.0 mg/kg/injection, schedule: Q01DX001 (ip), vehicle: other); 0 of 6 (dose: 150.0 mg/kg/injection, schedule: Q01DX001 (ip), vehicle: other); 0 of 6 (dose: 300.0 mg/kg/injection, schedule: Q01DX001 (ip), vehicle: other).
Consider `C=CCCCCC/C=C/CCCCCC`, for which, under setting [7], the survivor count is reported as 0 of 6.
In the case of `COc1cc(OC)c(NC(=O)c2ccc([N+](=O)[O-])s2)cc1Cl`, the survivor count (dose: 400.0 mg/kg/injection, schedule: Q01DX005 (ip), vehicle: saline) is 2 of 4.
With `Cc1ccc(/C=N/NC(=O)c2ccncc2)cc1`, the survivor count runs as follows: (dose: 200.0 mg/kg/injection, schedule: Q01DX009 (ip), vehicle: Klucel (hydroxypropylcellulose) (HPC)) 6 of 6; (dose: 400.0 mg/kg/injection, schedule: Q01DX009 (ip), vehicle: Klucel (hydroxypropylcellulose) (HPC)) 6 of 6.
